We go through two substances from patent US8466110B2, “Use of an agent that restores tissue perfusion and oxygenation” (Duke University, priority 2005, dated 2013).

The data set concerns baroreceptor and peripheral vasculature. The data set can be described thus: Summary of bioactivity of cell-free SNO-Hb and oxy-Hb (Table 3). Format: in vivo, rat.

With S-nitrosohemoglobin [SNO-Hb], the NO-related chemical fate entry (vascular pO2 at injection site high) was “SNO-Hb” and the NO-related chemical fate result (vascular pO2 at injection site low) is “Met-Hb + iron-nitrosyl Hb”.
As to “oxyhemoglobin [oxy-Hb, reference compound]”, the NO-related chemical fate entry (vascular pO2 at injection site any) is given as “Met-Hb +”.
